Reference: PMC12582157

Assays:
[1] = tested on: β-conglutin; assay: sandwich ELAA; conditions: Binding buffer, native protein
[2] = tested on: β-conglutin; assay: competitive ELAA; conditions: LOD 273 pM (not a Kd); Binding buffer; native protein; label: 5'-biotin (Table S1), 5'-thiol (sandwich); single-stranded DNA
[3] = tested on: β-conglutin; assay: ELAA; conditions: Binding buffer, native protein
[4] = tested on: β-conglutin; assay: MST; conditions: none (non-modified version of HB8); Binding buffer; native protein; single-stranded DNA
[5] = immobilized capture, label: 5'-biotin (Table S1), 5'-thiol (sandwich), single-stranded DNA
[6] = capture β-CBA-I or β-CBA-II, minimal binding, dAEIn in extended part after the primer, label: 5'-Cy5, 5'-biotin, synthetic backbone

GGTGGGGGTGG [SGQ]
binding result [1, 5]: binds

AGCTCCAGAAGATAAATTACAGGGGCCGGGGTGGCTCAGGCAAGGGGTTGACCTGTCGTAGGGATTGTTTTAACAACTAGGATACTATGACCCC [β-CBA-II]
binding result [1, 5]: binds
binding result [2]: binds

AGCTCCAGAAGATAAATTACAGGCCAAGATCTCGCGAGTTCCCAACAGGGCAGAGAGATGCCCGACACCAGTG [HB8_T1]
binding result ([3]; Kd similar to HB8, dA in nt 24-73 = dAEIn, label: 5'-Cy5 (MST), 5'-biotin (ELAA, BLI), synthetic backbone): binds
binding result ([1]; capture β-CBA-I, SGQ or β-CBA-II, dA in nt 24-73 = dAEIn, label: 5'-Cy5 (MST), 5'-biotin (ELAA, BLI), synthetic backbone): binds

AGCTCCAGAAGATAAATTACAGGGCGTATGCGGAGCATCAACTAAGTTCGATTCATTGCGCCGAGAACACCACAACGCAACGACCCCGGCAGCA [HB8_SC1]
binding result [1, 6]: binds more weakly

AGCTCCAGAAGATAAATTACAGGCCAAGATCTCGCGAGTTCCCAACAGGGCAGAGAGATGCCCGACACCAGTGCAACTAGGATACTATGACCCC [HB8]
binding result ([1]; capture β-CBA-I, SGQ or β-CBA-II, dA outside the 5' primer region (nt 24-94) replaced by indole-modified dA (dAEIn), label: 5'-Cy5 (MST), 5'-biotin (ELAA, BLI), synthetic backbone): binds

AGCTCCAGAAGATAAATTACAGGCCAAGATCTCGCGAGTTCCCAACAGGGCAGAGAGATGCCCGACACCAGTGCAACTAGGATACTATGACCCC [HB8N]
binding result [4]: no binding

AGCTGACACAGCAGGTTGGTGGGGGTGGCTTCCAGTTGGGTTGACAATACGTAGGGACACGAAGTCCAACCACGAGTCGAGCAATCTCGAAAT [β-CBA-I]
binding result ([3]; β-conglutin on magnetic beads, label: 5'-biotin (Table S1), 5'-thiol (sandwich), single-stranded DNA): binds
binding result [1, 5]: binds

GGTAAATGGAATATAGCCCAACACATTGAAGCCGGCAACTCGTACCCGAAGCGCGAGGGCAAGTACTCCAGCA [HB8_SC2]
binding result [1, 6]: binds more weakly

Construct, isoform or probe ends are uncertain for at least one entry. For some assays here: Negatives hold for the conditions tested. For some assays here: The comparison behind a weaker result is the experiment's own reference, which may not be listed here. For some assays here: At least one verdict rests on a figure or table, not on a statement of the authors.
